Assay results as given in article doi:10.1101/2020.12.02.407882.
No constants are given. Whether binding was seen depends on the method and setting. In cells and extracts the contact can be indirect. Some entries that bind do so weakly or less than the wild type.

Protein sequences, listed by entry. Tags and fused reporters are not part of them. Residues count along the entry.
UniProt P07766, residues 23-207: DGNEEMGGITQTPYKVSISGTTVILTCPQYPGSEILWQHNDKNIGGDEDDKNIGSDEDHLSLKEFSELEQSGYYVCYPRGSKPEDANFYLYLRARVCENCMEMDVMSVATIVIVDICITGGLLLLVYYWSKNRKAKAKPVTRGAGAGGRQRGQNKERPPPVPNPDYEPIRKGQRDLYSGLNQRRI

Target: CD3ε, endogenous in J76 Jurkat cells (human (endogenous in Jurkat J76)) (UniProt P07766)
Test: co-IP

Substance: CD3ζ (ζζ dimer), endogenous in J76 Jurkat cells (from UniProt P20963-1 22-164)
- binding: binds
